# PMC4413876
# Results are given in words; binding and its absence hold for the method and conditions named. Some entries that bind do so weakly or less than the wild type. Sequences can lack the tags named with a protein.
# T1: Pol1, polymerase subunit of Pol α, with a C-terminal 3XFLAG tag (S. cerevisiae) (UniProt P13382)
# T1 sequence: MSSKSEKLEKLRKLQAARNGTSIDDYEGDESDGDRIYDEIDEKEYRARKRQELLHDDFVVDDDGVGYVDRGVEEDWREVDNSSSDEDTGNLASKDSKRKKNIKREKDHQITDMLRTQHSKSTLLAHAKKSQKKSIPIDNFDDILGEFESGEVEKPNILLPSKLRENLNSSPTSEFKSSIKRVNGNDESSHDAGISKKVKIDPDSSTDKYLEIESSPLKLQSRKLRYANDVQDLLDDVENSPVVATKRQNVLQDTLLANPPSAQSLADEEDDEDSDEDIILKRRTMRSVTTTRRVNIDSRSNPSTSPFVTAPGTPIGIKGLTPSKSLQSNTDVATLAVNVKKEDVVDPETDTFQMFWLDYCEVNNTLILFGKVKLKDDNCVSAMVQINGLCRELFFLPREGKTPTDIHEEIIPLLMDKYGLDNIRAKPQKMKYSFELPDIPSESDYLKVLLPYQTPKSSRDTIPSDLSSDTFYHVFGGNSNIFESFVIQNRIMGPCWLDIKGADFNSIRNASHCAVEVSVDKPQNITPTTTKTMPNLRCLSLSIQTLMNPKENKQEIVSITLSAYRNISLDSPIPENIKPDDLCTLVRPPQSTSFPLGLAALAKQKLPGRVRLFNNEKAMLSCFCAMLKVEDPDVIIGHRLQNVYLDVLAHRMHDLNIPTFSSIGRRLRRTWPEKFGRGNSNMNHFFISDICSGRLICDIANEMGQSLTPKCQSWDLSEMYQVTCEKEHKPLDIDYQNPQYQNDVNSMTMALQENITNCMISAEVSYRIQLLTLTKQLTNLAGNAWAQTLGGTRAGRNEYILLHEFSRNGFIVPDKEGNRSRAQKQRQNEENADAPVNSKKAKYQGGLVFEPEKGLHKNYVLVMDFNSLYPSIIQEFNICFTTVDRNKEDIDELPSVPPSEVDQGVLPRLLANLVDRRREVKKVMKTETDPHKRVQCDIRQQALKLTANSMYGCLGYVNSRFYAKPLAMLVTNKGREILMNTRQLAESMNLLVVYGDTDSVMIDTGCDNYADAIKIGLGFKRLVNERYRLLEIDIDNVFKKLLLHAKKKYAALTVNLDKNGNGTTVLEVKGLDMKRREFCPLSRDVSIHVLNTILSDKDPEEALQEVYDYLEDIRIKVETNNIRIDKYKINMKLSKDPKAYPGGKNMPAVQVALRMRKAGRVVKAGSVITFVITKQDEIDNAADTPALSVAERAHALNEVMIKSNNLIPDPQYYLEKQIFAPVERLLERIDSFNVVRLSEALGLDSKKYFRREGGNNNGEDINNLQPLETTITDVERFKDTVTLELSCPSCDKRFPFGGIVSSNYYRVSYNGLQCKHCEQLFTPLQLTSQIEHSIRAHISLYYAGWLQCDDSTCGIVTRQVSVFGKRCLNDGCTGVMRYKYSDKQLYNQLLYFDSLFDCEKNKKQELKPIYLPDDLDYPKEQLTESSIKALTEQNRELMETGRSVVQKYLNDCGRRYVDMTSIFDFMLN
# Target: T1, Pol1, polymerase subunit of Pol α, with a C-terminal 3XFLAG tag (S. cerevisiae)
# Assay: co-purification (anti-Flag agarose, then heparin agarose); yeast cells with Pol1-3XFLAG and E. coli cells with Pol12 and with Pri1 and Pri2 co-crushed; lysate incubated with anti-Flag agarose 1.5 hr at 12°C, washed in 50 mM Hepes pH 7.4, 250 mM potassium glutamate, 1 mM EDTA, eluted with Flag peptide, then heparin agarose with a NaCl gradient; subunits seen by SDS-PAGE and confirmed by mass spectrometry
row,binding,Binder
1,binds,"Pol12 subunit of Pol α (protein, UniProt P38121 1-705) MSGSIDVITHFGPDADKPEIITALENLTKLHALSVEDLYIKWEQFSNQRRQTHTDLTSKNIDEFKQFLQLQMEKRANQISSSSKVNTSTKKPVIKKSLNSSPLFGLSIPKTPTLKKRKLHGPFSLSDSKQTYNVGSEAETNEKGNSSLKLEFTPGMAEDAVGDSAPLSHAKSSDAKTPGSSTFQTPTTNTPTTSRQNVPAGEILDSLNPENIEISSGNPNVGLLSTEEPSYNQVKVEPFYDAKKYKFRTMRQNLQEASDVLDDQIESFTKIIQNHYKLSPNDFADPTIQSQSEIYAVGRIVPDSPTYDKFLNPESLSLETSRMGGVGRRVRLDLSQVNELSFFLGQIVAFKGKNANGDYFTVNSILPLPYPNSPVSTSQELQEFQANLEGSSLKVIVTCGPYFANDNFSLELLQEFIDSINNEVKPHVLIMFGPFIDITHPLIASGKLPNFPQFKTQPKTLDELFLKLFTPILKTISPHIQTVLIPSTKDAISNHAAYPQASLIRKALQLPKRNFKCMANPSSFQINEIYFGCSNVDTFKDLKEVIKGGTTSSRYRLDRVSEHILQQRRYYPIFPGSIRTRIKPKDVSTKKETNDMESKEEKVYEHISGADLDVSYLGLTEFVGGFSPDIMIIPSELQHFARVVQNVVVINPGRFIRATGNRGSYAQITVQCPDLEDGKLTLVEGEEPVYLHNVWKRARVDLIAS"
2,binds,"Pri2 primase subunit of Pol α (protein, UniProt P20457 1-528) MFRQSKRRIASRKNFSSYDDIVKSELDVGNTNAANQIILSSSSSEEEKKLYARLYESKLSFYDLPPQGEITLEQFEIWAIDRLKILLEIESCLSRNKSIKEIETIIKPQFQKLLPFNTESLEDRKKDYYSHFILRLCFCRSKELREKFVRAETFLFKIRFNMLTSTDQTKFVQSLDLPLLQFISNEEKAELSHQLYQTVSASLQFQLNLNEEHQRKQYFQQEKFIKLPFENVIELVGNRLVFLKDGYAYLPQFQQLNLLSNEFASKLNQELIKTYQYLPRLNEDDRLLPILNHLSSGYTIADFNQQKANQFSENVDDEINAQSVWSEEISSNYPLCIKNLMEGLKKNHHLRYYGRQQLSLFLKGIGLSADEALKFWSEAFTRNGNMTMEKFNKEYRYSFRHNYGLEGNRINYKPWDCHTILSKPRPGRGDYHGCPFRDWSHERLSAELRSMKLTQAQIISVLDSCQKGEYTIACTKVFEMTHNSASADLEIGEQTHIAHPNLYFERSRQLQKKQQKLEKEKLFNNGNH"
3,binds,"Pri1 primase subunit of Pol α (protein, UniProt P10363 1-409) MTNSVKTNGPSSSDMEYYYKSLYPFKHIFNWLNHSPKPSRDMINREFAMAFRSGAYKRYNSFNSVQDFKAQIEKANPDRFEIGAIYNKPPRERDTLLKSELKALEKELVFDIDMDDYDAFRTCCSGAQVCSKCWKFISLAMKITNTALREDFGYKDFIWVFSGRRGAHCWVSDKRARALTDVQRRNVLDYVNVIRDRNTDKRLALKRPYHPHLARSLEQLKPFFVSIMLEEQNPWEDDQHAIQTLLPALYDKQLIDSLKKYWLDNPRRSSKEKWNDIDQIATSLFKGPKQDSHIIKLRECKEDLVLMTLYPKLDVEVTKQTIHLLKAPFCIHPATGNVCVPIDESFAPEKAPKLIDLQTEMEKNNDVSLTALQPFINQFQAYVSSLLKNELGSVKREREDDDEPASLDF"
